Test results as given in paper doi:10.1101/2021.08.25.457676.

Sequences of proteins named here, by UniProt entry; tags and fusion partners are left off. Residues count along the entry.
UniProt P27695, whole entry D210A: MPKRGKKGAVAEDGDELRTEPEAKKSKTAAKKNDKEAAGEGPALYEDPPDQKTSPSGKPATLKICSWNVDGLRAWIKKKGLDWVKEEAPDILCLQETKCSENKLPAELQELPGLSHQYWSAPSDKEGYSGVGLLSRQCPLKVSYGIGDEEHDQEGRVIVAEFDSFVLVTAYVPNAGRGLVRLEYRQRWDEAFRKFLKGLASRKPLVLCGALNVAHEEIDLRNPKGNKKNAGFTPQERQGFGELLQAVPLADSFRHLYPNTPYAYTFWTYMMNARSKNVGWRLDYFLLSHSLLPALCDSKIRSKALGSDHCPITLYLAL
UniProt P27695, 62-318 D210A: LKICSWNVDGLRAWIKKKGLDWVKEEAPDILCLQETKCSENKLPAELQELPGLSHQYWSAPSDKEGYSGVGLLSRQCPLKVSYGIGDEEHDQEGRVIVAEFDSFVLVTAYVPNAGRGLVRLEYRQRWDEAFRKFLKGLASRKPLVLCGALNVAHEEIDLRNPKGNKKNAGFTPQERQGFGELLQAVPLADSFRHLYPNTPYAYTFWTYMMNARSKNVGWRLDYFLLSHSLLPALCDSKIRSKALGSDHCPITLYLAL

Experiments:
Assay in all cases: fluorescence anisotropy
[1] = target: APE1 (WT) (Homo sapiens) (UniProt P27695); conditions: 0 Mg2+, EDTA, 50 mM K+; letters put together from the description
[2] = target: D210A-APE1 (Homo sapiens) (UniProt P27695)
[3] = target: Δ61-D210A-APE1 D210A,del1-61 (Homo sapiens) (UniProt P27695); conditions: 10 mM Mg2+, 50 mM K+; residues 62-318

Sequence | pKd [1] | pKd ([2]; 5 uM pyridostatin, 10 mM Mg2+, 50 mM K+) | pKd ([2]; 50 mM Li+ (no G4 folding)) | binding signal (fold higher Kd than without PEG) ([2]; 20% PEG-200) | pKd [3]
CGGGGCGGGCCGGGGGCGGGGT (double strand) [dsDNA without F (VEGF)] | < 5.30 | – | – | – | –
CGGGGCGGGCCGGGGGCGGGGT [VEGF-4] | – | 6.15 | < 5.30 | 2 | < 5.30

pKd: −log10 of the molar value. For some assays here: For at least one entry, the source does not settle the construct or the ends of the probe. For some assays here: Whether high values mean tight binding is not given here for every scale.
